This is one part of the list.
Experiments:
Test in all cases: log2 fold change, soluble protein after heating vs DMSO (PISA); higher = thermal stabilisation; K562 lysate, 10 uM; active = over 0.2 and 3.5 SD of the protein, either way, in both replicates (recomputed)
vemurafenib = compound: CCCS(=O)(=O)Nc1ccc(F)c(C(=O)c2c[nH]c3ncc(-c4ccc(Cl)cc4)cc23)c1F [vemurafenib]
Procedure, shortened: (§1)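 K562 pellets were dounce-homogenised in PBS pH 7.4 containing 1 mM MgCl2, and the crude extract, at 1 mg/mL protein, was exposed to 10 μM compound for 30 min. Aliquots were heated for 3 min across 48°C-58°C, pooled, brought to 0.5% NP-40 at 4°C and spun at 21,000xg for 90 min, with the supernatant taken as soluble protein. TMTpro 16plex LC-MS/MS with equalised channel sums quantified that protein. Values are log-two fold changes in thermal stability relative to solvent controls, taken from duplicates.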

Amino acid sequences for entries named in this document (tags omitted). A change or cut given only in a name is not applied to a line headed by its entry.
UniProt P33908: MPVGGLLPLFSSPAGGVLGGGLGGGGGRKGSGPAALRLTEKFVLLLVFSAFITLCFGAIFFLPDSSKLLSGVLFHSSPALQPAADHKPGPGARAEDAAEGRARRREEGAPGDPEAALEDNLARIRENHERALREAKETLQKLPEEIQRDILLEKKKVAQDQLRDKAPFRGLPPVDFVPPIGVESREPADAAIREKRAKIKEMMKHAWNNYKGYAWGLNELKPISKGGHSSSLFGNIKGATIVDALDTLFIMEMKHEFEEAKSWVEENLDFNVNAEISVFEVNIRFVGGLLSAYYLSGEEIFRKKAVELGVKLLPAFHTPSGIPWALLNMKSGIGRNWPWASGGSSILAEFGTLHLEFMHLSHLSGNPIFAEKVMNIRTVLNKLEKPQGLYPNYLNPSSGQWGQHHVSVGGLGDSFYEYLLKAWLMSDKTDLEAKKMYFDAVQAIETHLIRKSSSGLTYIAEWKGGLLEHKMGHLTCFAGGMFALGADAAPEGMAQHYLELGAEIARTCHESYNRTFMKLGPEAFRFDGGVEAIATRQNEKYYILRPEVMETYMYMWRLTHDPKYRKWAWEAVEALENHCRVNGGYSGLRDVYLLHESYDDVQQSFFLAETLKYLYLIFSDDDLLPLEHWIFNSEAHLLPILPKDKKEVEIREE
UniProt Q8IV50: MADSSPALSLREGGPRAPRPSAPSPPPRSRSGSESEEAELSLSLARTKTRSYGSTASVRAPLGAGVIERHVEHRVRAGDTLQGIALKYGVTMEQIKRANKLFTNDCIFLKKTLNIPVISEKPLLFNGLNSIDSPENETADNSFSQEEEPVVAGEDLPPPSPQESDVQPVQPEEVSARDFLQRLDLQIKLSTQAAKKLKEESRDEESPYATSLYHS
UniProt Q8IW41: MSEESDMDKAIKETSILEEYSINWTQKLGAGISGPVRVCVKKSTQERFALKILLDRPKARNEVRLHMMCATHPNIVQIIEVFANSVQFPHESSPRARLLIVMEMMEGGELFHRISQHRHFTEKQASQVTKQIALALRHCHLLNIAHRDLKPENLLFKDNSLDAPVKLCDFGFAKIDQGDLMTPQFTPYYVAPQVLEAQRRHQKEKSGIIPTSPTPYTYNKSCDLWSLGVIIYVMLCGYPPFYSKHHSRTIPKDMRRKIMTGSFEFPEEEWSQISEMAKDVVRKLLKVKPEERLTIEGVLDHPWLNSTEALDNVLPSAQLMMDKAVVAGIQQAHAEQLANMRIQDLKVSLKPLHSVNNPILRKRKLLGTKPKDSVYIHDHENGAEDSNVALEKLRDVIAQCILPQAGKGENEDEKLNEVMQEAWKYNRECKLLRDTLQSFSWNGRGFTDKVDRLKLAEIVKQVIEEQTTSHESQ
UniProt P78559: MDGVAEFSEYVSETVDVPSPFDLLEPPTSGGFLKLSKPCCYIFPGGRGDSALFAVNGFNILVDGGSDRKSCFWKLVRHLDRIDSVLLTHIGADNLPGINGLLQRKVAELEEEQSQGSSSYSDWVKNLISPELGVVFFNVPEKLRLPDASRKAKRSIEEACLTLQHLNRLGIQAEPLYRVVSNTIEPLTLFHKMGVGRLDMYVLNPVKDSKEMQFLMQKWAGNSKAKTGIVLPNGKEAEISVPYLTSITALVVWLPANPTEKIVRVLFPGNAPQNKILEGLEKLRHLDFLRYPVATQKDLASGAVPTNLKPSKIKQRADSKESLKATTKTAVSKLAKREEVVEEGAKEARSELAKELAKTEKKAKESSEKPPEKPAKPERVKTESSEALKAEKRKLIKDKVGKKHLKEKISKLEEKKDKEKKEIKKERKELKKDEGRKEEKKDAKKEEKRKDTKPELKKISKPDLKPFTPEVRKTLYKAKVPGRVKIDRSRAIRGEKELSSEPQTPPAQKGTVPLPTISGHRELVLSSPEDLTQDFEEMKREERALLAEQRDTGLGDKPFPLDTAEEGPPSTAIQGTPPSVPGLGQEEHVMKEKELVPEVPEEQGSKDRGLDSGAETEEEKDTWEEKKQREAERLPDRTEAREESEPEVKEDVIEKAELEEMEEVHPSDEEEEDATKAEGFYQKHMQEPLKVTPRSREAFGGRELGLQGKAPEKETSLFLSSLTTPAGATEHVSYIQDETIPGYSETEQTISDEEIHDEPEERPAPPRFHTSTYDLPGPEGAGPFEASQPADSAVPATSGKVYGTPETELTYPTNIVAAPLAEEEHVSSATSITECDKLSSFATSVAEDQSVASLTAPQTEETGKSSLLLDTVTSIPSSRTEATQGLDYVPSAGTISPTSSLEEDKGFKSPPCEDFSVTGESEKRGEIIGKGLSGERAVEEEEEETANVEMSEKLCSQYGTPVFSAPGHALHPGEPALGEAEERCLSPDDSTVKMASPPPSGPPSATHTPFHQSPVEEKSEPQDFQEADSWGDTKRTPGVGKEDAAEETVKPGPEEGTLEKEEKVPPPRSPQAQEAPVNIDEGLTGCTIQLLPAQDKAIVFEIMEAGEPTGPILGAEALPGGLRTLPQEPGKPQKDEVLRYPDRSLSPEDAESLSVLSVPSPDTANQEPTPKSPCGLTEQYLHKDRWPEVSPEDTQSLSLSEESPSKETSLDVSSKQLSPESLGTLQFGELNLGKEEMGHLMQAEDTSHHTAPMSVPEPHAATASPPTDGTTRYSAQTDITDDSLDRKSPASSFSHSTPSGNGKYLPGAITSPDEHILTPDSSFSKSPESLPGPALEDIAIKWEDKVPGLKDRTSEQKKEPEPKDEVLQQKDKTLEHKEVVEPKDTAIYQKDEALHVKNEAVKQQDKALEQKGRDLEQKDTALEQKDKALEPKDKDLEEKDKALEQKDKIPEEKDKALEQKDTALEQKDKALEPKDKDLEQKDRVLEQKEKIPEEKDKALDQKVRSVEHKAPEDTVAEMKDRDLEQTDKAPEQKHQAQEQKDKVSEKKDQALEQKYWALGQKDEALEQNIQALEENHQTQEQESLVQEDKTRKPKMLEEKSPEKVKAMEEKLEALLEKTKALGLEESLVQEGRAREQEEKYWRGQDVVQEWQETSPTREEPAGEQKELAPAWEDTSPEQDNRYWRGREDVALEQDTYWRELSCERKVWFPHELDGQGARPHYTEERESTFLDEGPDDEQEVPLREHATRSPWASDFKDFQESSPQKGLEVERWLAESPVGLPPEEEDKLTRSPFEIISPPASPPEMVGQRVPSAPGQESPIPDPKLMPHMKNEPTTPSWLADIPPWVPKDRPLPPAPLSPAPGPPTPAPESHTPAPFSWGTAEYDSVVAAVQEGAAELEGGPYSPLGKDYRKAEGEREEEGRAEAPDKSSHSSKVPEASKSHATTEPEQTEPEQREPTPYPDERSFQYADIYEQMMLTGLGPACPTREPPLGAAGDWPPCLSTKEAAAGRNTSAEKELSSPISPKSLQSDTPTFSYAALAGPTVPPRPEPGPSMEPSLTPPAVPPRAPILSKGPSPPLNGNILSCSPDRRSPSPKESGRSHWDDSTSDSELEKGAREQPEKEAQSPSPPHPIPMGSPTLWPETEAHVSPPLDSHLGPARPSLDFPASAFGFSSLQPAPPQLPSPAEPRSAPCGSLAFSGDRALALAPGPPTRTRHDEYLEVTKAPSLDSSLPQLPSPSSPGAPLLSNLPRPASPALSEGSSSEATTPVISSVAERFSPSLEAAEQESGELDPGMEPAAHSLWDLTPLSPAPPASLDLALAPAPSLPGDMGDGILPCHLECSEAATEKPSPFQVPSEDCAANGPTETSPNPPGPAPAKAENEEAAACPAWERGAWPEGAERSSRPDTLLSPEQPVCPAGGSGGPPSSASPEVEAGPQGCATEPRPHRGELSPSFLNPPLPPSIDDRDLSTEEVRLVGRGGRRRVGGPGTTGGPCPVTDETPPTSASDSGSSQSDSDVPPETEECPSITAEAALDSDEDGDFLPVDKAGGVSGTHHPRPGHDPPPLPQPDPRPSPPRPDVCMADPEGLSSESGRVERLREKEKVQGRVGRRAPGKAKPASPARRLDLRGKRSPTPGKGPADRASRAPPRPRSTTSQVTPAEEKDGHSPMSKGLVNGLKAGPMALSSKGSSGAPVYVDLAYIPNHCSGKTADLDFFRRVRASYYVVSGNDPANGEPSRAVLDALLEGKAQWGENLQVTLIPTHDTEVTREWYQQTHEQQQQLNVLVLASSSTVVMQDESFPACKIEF
UniProt Q96GW9: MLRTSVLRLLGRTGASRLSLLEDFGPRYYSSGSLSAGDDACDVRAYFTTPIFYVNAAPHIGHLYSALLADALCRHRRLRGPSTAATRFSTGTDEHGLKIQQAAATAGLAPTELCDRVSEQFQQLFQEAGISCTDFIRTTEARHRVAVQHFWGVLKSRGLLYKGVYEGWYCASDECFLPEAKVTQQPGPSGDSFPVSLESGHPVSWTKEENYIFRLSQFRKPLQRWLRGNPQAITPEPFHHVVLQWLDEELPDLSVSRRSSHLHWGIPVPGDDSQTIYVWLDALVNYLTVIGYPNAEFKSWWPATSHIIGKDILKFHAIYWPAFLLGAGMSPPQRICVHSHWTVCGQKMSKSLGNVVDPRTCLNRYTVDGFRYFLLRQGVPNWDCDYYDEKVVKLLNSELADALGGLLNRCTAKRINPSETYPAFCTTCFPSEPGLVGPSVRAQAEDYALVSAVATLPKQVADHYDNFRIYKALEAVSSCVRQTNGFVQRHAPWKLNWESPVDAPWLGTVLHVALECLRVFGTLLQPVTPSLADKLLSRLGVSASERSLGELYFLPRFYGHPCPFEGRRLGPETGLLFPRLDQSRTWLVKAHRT
UniProt P27816: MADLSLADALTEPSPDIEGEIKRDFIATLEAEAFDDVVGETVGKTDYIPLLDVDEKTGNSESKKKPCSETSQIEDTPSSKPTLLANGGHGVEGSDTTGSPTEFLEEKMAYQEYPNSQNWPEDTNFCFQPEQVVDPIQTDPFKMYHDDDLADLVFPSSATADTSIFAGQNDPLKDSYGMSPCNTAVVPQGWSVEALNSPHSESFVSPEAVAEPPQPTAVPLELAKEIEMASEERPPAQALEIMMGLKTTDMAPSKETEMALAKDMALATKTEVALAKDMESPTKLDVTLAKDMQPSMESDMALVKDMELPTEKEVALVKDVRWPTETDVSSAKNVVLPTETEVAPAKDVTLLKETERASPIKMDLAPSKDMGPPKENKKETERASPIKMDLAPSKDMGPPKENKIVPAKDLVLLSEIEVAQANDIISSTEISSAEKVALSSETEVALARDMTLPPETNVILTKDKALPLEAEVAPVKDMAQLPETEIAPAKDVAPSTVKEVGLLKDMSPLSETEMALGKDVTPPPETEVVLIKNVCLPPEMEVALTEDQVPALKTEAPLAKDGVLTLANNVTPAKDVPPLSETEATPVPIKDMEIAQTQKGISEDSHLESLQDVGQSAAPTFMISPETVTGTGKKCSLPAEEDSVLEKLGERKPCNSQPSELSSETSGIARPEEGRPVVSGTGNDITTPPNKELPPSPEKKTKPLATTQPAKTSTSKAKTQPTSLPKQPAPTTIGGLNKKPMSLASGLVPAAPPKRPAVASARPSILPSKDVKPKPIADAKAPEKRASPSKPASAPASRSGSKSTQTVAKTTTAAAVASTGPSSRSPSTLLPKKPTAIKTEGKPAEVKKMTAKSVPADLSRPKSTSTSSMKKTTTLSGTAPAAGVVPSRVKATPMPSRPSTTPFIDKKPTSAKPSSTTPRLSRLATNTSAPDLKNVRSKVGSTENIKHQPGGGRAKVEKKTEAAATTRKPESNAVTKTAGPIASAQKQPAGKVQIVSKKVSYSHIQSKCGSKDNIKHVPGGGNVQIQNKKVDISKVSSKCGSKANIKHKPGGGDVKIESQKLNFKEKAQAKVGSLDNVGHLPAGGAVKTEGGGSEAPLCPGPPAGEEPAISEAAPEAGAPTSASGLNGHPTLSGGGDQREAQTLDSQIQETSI
UniProt Q9UI95, whole entry, looked up: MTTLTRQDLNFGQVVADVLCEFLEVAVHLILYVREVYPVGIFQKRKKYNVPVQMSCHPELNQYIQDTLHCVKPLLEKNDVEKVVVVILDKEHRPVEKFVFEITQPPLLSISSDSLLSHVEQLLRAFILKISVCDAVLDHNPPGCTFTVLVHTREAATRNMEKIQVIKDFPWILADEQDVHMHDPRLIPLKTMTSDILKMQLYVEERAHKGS

[1] = compound: CCCS(=O)(=O)Nc1ccc(F)c(C(=O)c2c[nH]c3ncc(Cl)cc23)c1F
Procedure, shortened: as §1

barasertib = compound: CCN(CCCOc1ccc2c(Nc3cc(CC(=O)Nc4cccc(F)c4)[nH]n3)ncnc2c1)CCOP(=O)(O)O [barasertib]
Procedure, shortened: as §1

[2] = compound: CC[C@@H]1C(=O)N(C)c2cnc(Nc3ccc(C(=O)NC4CCN(C)CC4)cc3OC)nc2N1C1CCCC1
Procedure, shortened: as §1

volasertib = compound: CC[C@@H]1C(=O)N(C)c2cnc(Nc3ccc(C(=O)N[C@H]4CC[C@H](N5CCN(CC6CC6)CC5)CC4)cc3OC)nc2N1C(C)C [volasertib]
Procedure, shortened: as §1

[3] = compound: CCn1c(C(=O)N(C2CC2)C2CC2)cc2c3c(ncn3C)c(Nc3cc(C)n(C)n3)nc21
Procedure, shortened: as §1

[4] = compound: CCn1cc(-c2ccnc3[nH]c(-c4cccc(CN(C)C)c4)cc23)c(-c2ccc(NC(=O)N(C)C)cc2)n1
Procedure, shortened: as §1

[5] = compound: CN1CCC(CNc2ccc3ncc(-c4cccc(OC(F)(F)F)c4)n3n2)CC1
Procedure, shortened: as §1

saracatinib = compound: CN1CCN(CCOc2cc(OC3CCOCC3)c3c(Nc4c(Cl)ccc5c4OCO5)ncnc3c2)CC1 [saracatinib]
Procedure, shortened: as §1

sotrastaurin = compound: CN1CCN(c2nc(C3=C(c4c[nH]c5ccccc45)C(=O)NC3=O)c3ccccc3n2)CC1 [sotrastaurin]
Procedure, shortened: as §1

alvocidib = compound: CN1CC[C@H](c2c(O)cc(O)c3c(=O)cc(-c4ccccc4Cl)oc23)[C@H](O)C1 [alvocidib]
Procedure, shortened: as §1

Tubastatin A = compound: CN1CCc2c(c3ccccc3n2Cc2ccc(C(=O)NO)cc2)C1 [Tubastatin A]
Procedure, shortened: as §1

[6] = compound: CNC(=O)C1=CC=CC=C1NC2=NC(=NC=C2Cl)NC3=C(C=C(C=C3)N4CCOCC4)OC
Procedure, shortened: as §1

defactinib = compound: CNC(=O)c1ccc(Nc2ncc(C(F)(F)F)c(NCc3nccnc3N(C)S(C)(=O)=O)n2)cc1 [defactinib]
Procedure, shortened: as §1

[7] = compound: CNc1nc(-c2ccc3c(N)n[nH]c3c2)cc(N2C[C@@H](C(=O)NC3CCCCC3)CC[C@H]2C)n1
Procedure, shortened: as §1

encorafenib = compound: COC(=O)N[C@@H](C)CNc1nccc(-c2cn(C(C)C)nc2-c2cc(Cl)cc(NS(C)(=O)=O)c2F)n1 [encorafenib]
Procedure, shortened: as §1

[8] = compound: COC(=O)[C@H](CCSC)NC(=O)C1=C(C=C(C=C1)NC[C@H](CS)N)C2=CC=CC=C2
Procedure, shortened: as §1

alisertib = compound: COc1cc(Nc2ncc3c(n2)-c2ccc(Cl)cc2C(c2c(F)cccc2OC)=NC3)ccc1C(=O)O [alisertib]
Procedure, shortened: as §1

[9] = compound: COc1cc2nc(-c3cc(F)ccc3O)nc(N[C@@H]3CNC[C@H]3C(C)(C)O)c2cc1OC
Procedure, shortened: as §1

gefitinib = compound: COc1cc2ncnc(Nc3ccc(F)c(Cl)c3)c2cc1OCCCN1CCOCC1 [gefitinib]
Procedure, shortened: as §1

Measured: log2 fold change

MAN1A1 (UniProt P33908)
inactive: vemurafenib -0.049 | [1] -0.033 | barasertib -0.015 | [2] -0.065 | volasertib 0.026 | [3] 0.065 | [4] -0.036 | [5] 0.06 | saracatinib 0.038 | sotrastaurin 0.002 | alvocidib -0.015 | Tubastatin A 0.001 | [6] 0.049 | defactinib 0.006 | [7] -0.104 | encorafenib 0.005 | [8] -0.001 | alisertib -0.021 | [9] -0.001 | gefitinib 0.029

LYPLA1 (UniProt O75608)
inactive: vemurafenib -0.011 | [1] -0.051 | barasertib 0.079 | [2] -0.035 | volasertib 0.021 | [3] 0.014 | [4] -0.007 | [5] -0.09 | saracatinib -0.021 | sotrastaurin -0.019 | alvocidib 0.046 | Tubastatin A 0.044 | [6] -0.011 | defactinib -0.004 | [7] -0.009 | encorafenib 0 | [8] -0.065 | alisertib 0.019 | [9] -0.061 | gefitinib -0.048

MAPK9 (UniProt P45984)
active: [6] 0.44
inactive: vemurafenib -0.016 | [1] -0.002 | barasertib -0.025 | [2] -0.063 | volasertib 0.006 | [3] -0.007 | [4] 0.084 | [5] -0.15 | saracatinib 0.002 | sotrastaurin -0.031 | alvocidib 0.028 | Tubastatin A -0.064 | defactinib 0.056 | [7] 0.006 | encorafenib 0.17 | [8] -0.019 | alisertib -0.021 | [9] 0.006 | gefitinib 0.027

Reprinted from the results shown (two entries):
MAN1A1 (UniProt P33908)
inactive: vemurafenib -0.049 | [1] -0.033 | barasertib -0.015 | [2] -0.065 | volasertib 0.026 | [3] 0.065 | [4] -0.036 | [5] 0.06 | saracatinib 0.038 | sotrastaurin 0.002 | alvocidib -0.015 | Tubastatin A 0.001 | [6] 0.049 | defactinib 0.006 | [7] -0.104 | encorafenib 0.005 | [8] -0.001 | alisertib -0.021 | [9] -0.001 | gefitinib 0.029

LYPLA1 (UniProt O75608)
inactive: vemurafenib -0.011 | [1] -0.051 | barasertib 0.079 | [2] -0.035 | volasertib 0.021 | [3] 0.014 | [4] -0.007 | [5] -0.09 | saracatinib -0.021 | sotrastaurin -0.019 | alvocidib 0.046 | Tubastatin A 0.044 | [6] -0.011 | defactinib -0.004 | [7] -0.009 | encorafenib 0 | [8] -0.065 | alisertib 0.019 | [9] -0.061 | gefitinib -0.048

Further entries

LTF (UniProt P02788)
inactive: vemurafenib -0.02 | [1] -0.08 | barasertib -0.248 | [2] -0.112 | volasertib 0.044 | [3] -0.029 | [4] 0.4 | [5] -0.241 | saracatinib -0.031 | sotrastaurin -0.151 | alvocidib 0.021 | Tubastatin A 0.123 | [6] -0.047 | defactinib -0.078 | [7] -0.319 | encorafenib -0.071 | [8] 0.007 | alisertib -0.09 | [9] 0.036 | gefitinib 0.094

LYSMD2 (UniProt Q8IV50)
inactive: vemurafenib -0.041 | [1] -0.003 | barasertib -0.005 | [2] 0.057 | volasertib 0.025 | [3] 0.014 | [4] 0.024 | [5] 0.026 | saracatinib 0.002 | sotrastaurin 0.019 | alvocidib 0.005 | Tubastatin A -0.042 | [6] 0.056 | defactinib 0.029 | [7] 0 | encorafenib 0.002 | [8] -0.044 | alisertib 0.025 | [9] -0.026 | gefitinib 0.046

MAP3K4 (UniProt Q9Y6R4)
inactive: vemurafenib 0.006 | [1] 0.007 | barasertib 0.107 | [2] 0.145 | volasertib 0.167 | [3] 0.012 | [4] 0.047 | [5] 0.015 | saracatinib 0.005 | sotrastaurin -0.014 | alvocidib -0.027 | Tubastatin A -0.113 | defactinib 0.071 | [7] -0.018 | encorafenib -0.171 | [8] 0.128 | alisertib -0.028 | [9] -0.045 | gefitinib 0.081
active: [6] 0.366

MAPKAPK5 (UniProt Q8IW41)
inactive: vemurafenib -0.111 | [1] -0.11 | barasertib -0.013 | [2] -0.009 | volasertib -0.052 | [3] 0.031 | [4] 0.017 | [5] -0.02 | saracatinib -0.009 | sotrastaurin -0.068 | alvocidib 0.055 | Tubastatin A 0 | [6] 0.006 | defactinib 0.003 | [7] -0.089 | encorafenib -0.074 | [8] -0.125 | alisertib -0.006 | [9] 0.01 | gefitinib 0.019

MAP1A (UniProt P78559)
inactive: vemurafenib 0.001 | [1] 0.006 | barasertib -0.005 | [2] 0.021 | volasertib 0.007 | [3] -0.011 | [4] 0.001 | [5] 0.004 | saracatinib 0.003 | sotrastaurin 0.011 | alvocidib -0.01 | Tubastatin A -0.007 | [6] 0.02 | defactinib -0.001 | [7] 0.004 | encorafenib -0.007 | [8] 0.023 | alisertib 0.004 | [9] -0.009 | gefitinib -0.016

MAGEA1 (UniProt P43355)
inactive: vemurafenib -0.036 | [1] 0.033 | barasertib 0.116 | [2] -0.023 | volasertib -0.016 | [3] -0.028 | [4] 0.12 | [5] -0.044 | saracatinib 0.029 | sotrastaurin 0.044 | alvocidib 0.056 | Tubastatin A -0.053 | [6] 0.021 | defactinib -0.008 | [7] -0.034 | encorafenib 0.084 | [8] 0.004 | alisertib 0.047 | [9] -0.103 | gefitinib 0.001

MAPKAPK3 (UniProt Q16644)
inactive: vemurafenib -0.02 | [1] -0.018 | barasertib 0.015 | [2] -0.145 | volasertib 0.002 | [3] 0.028 | [4] -0.001 | [5] -0.067 | saracatinib 0.003 | sotrastaurin -0.014 | alvocidib 0.038 | Tubastatin A -0.125 | [6] 0.015 | defactinib 0.033 | [7] -0.11 | encorafenib -0.015 | [8] 0.055 | alisertib -0.055 | [9] 0.006 | gefitinib 0.148

MARS2 (UniProt Q96GW9)
inactive: vemurafenib 0.021 | [1] -0.004 | barasertib -0.009 | [2] 0 | volasertib 0.007 | [3] -0.052 | [4] 0.008 | [5] 0.005 | saracatinib -0.016 | sotrastaurin -0.01 | alvocidib 0.03 | Tubastatin A 0.026 | [6] 0.071 | defactinib 0.015 | [7] 0.079 | encorafenib 0.019 | [8] -0.148 | alisertib -0.053 | [9] -0.002 | gefitinib 0.002

LTV1 (UniProt Q96GA3)
inactive: vemurafenib 0.018 | [1] 0.019 | barasertib -0.01 | [2] 0.004 | volasertib -0.031 | [3] -0.012 | [4] 0.028 | [5] -0.07 | saracatinib 0.014 | sotrastaurin -0.001 | alvocidib 0.034 | Tubastatin A -0.045 | [6] 0.005 | defactinib 0.022 | [7] 0.013 | encorafenib 0.006 | [8] -0.057 | alisertib 0.042 | [9] 0.003 | gefitinib -0.011

MAP7D3 (UniProt Q8IWC1)
active: defactinib -0.379
inactive: vemurafenib -0.153 | [1] -0.039 | barasertib -0.031 | [2] -0.056 | volasertib 0.018 | [3] 0.029 | [4] -0.053 | [5] -0.006 | saracatinib -0.019 | sotrastaurin -0.024 | alvocidib -0.063 | Tubastatin A 0.015 | [6] 0.037 | [7] -0.011 | encorafenib 0.223 | [8] 0.013 | alisertib 0.01 | [9] -0.02 | gefitinib 0.017

MAPRE2 (UniProt Q15555)
inactive: vemurafenib -0.01 | [1] 0.037 | barasertib -0.052 | [2] -0.078 | volasertib -0.048 | [3] 0.007 | [4] 0.254 | [5] -0.024 | saracatinib 0.053 | sotrastaurin 0.017 | alvocidib 0.043 | Tubastatin A -0.081 | [6] 0.025 | defactinib 0.011 | [7] -0.071 | encorafenib 0.02 | [8] 0.093 | alisertib 0.045 | [9] -0.017 | gefitinib 0.041

MAP4 (UniProt P27816)
inactive: vemurafenib 0.01 | [1] -0.017 | barasertib -0.016 | [2] 0.064 | volasertib 0.033 | [3] -0.022 | [4] -0.042 | [5] 0.036 | saracatinib -0.009 | sotrastaurin -0.027 | alvocidib -0.023 | Tubastatin A 0.043 | [6] 0.016 | defactinib -0.02 | [7] 0.037 | encorafenib -0.024 | [8] -0.031 | alisertib -0.007 | [9] 0.014 | gefitinib -0.02

MAD2L2 (UniProt Q9UI95)
inactive: vemurafenib -0.028 | [1] 0.246 | barasertib 0.013 | [2] -0.065 | volasertib 0.044 | [3] 0.089 | [4] -0.036 | [5] -0.051 | saracatinib 0.079 | sotrastaurin -0.006 | alvocidib -0.026 | Tubastatin A 0.051 | [6] 0.033 | defactinib 0.06 | [7] 0.064 | encorafenib -0.069 | [8] 0.022 | alisertib 0.04 | [9] 0.135 | gefitinib -0.006

From the supplement of paper PMC10849652
